These are yes or no findings as the source states them, for the method shown. Binding seen in cells or lysates may run through a third protein. Some results given as binding are weak or reduced against the parent protein; the word gives no strength.
Target: T1, β-catenin (human (endogenous in MCF-7)), P35222
T1 chain: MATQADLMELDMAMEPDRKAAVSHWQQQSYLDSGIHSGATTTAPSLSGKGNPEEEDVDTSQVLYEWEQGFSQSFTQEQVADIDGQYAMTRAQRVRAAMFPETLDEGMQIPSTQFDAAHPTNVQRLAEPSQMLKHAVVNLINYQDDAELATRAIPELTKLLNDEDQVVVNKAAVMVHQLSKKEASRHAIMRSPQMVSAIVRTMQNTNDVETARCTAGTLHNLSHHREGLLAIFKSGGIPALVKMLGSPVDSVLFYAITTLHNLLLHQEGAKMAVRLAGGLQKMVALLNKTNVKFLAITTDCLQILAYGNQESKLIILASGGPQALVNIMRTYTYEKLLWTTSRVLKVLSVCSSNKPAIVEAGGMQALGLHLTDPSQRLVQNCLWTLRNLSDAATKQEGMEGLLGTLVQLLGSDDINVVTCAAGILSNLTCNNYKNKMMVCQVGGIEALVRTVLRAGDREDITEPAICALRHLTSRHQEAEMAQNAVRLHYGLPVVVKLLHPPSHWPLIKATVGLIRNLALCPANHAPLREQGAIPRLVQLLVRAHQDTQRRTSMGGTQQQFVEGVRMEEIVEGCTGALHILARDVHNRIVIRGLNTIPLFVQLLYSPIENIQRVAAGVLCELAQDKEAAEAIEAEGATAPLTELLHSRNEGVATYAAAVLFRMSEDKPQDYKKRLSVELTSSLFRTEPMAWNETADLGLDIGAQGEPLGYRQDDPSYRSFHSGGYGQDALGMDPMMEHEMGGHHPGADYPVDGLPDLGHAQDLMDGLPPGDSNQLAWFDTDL
Assay: co-IP; lysates of platelet-co-cultured MCF-7 cells (PBS with 0.1% Triton X-100, then RIPA buffer); immune and preimmune sera with protein A-Sepharose beads, 14 h at 4 °C; western blotting
Conditions: remark: other sources report otherwise

- binding: binds
B1: pSmad3, P84022 1-425 (protein)
chain: MSSILPFTPPIVKRLLGWKKGEQNGQEEKWCEKAVKSLVKKLKKTGQLDELEKAITTQNVNTKCITIPRSLDGRLQVSHRKGLPHVIYCRLWRWPDLHSHHELRAMELCEFAFNMKKDEVCVNPYHYQRVETPVLPPVLVPRHTEIPAEFPPLDDYSHSIPENTNFPAGIEPQSNIPETPPPGYLSEDGETSDHQMNHSMDAGSPNLSPNPMSPAHNNLDLQPVTYCEPAFWCSISYYELNQRVGETFHASQPSMTVDGFTDPSNSERFCLGLLSNVNRNAAVELTRRHIGRGVRLYYIGGEVFAECLSDSAIFVQSPNCNQRYGWHPATVCKIPPGCNLKIFNNQEFAALLAQSVNQGFEAVYQLTRMCTIRMSFVKGWGAEYRRQTVTSTPCWIELHLNGPLQWLDKVLTQMGSPSIRCSSVS
modifications: here or on the partner: phosphorylated (pSmad3); residues not stated

Source: article PMC6836423
